Consider 32 targets from the supplement of paper PMC10849652.

Chains of the proteins cited; added tags and fusions are not shown. Lines headed by an entry give the natural chain unless they say otherwise; changes in a name come on top.
UniProt O43543: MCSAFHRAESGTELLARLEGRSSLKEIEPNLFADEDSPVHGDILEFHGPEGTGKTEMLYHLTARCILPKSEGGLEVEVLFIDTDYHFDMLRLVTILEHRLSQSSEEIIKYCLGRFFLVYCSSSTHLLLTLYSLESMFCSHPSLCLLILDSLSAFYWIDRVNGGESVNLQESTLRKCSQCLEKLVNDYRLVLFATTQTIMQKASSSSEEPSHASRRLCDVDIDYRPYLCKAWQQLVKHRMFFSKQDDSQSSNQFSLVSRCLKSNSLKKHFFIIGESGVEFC
UniProt Q9Y548: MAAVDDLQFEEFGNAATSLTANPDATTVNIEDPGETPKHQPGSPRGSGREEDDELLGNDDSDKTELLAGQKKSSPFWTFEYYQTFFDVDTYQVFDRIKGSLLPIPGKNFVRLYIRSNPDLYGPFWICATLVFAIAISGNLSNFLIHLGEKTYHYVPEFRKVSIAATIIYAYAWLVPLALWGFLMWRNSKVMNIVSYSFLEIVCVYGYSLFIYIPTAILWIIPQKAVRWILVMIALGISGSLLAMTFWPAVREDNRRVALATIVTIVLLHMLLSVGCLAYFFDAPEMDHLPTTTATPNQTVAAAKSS
UniProt O43670: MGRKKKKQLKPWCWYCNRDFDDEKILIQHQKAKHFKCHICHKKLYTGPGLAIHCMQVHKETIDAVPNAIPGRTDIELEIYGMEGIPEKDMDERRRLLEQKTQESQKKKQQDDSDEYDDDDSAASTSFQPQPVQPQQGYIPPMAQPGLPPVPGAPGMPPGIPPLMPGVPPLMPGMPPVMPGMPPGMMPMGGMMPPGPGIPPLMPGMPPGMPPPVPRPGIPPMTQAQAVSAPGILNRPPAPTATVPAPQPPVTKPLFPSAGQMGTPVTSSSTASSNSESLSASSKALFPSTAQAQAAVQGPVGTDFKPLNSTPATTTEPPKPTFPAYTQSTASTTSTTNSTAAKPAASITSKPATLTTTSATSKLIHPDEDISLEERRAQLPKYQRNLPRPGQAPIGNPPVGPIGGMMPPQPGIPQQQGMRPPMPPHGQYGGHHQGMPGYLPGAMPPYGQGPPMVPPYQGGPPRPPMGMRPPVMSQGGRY
UniProt Q96DT7: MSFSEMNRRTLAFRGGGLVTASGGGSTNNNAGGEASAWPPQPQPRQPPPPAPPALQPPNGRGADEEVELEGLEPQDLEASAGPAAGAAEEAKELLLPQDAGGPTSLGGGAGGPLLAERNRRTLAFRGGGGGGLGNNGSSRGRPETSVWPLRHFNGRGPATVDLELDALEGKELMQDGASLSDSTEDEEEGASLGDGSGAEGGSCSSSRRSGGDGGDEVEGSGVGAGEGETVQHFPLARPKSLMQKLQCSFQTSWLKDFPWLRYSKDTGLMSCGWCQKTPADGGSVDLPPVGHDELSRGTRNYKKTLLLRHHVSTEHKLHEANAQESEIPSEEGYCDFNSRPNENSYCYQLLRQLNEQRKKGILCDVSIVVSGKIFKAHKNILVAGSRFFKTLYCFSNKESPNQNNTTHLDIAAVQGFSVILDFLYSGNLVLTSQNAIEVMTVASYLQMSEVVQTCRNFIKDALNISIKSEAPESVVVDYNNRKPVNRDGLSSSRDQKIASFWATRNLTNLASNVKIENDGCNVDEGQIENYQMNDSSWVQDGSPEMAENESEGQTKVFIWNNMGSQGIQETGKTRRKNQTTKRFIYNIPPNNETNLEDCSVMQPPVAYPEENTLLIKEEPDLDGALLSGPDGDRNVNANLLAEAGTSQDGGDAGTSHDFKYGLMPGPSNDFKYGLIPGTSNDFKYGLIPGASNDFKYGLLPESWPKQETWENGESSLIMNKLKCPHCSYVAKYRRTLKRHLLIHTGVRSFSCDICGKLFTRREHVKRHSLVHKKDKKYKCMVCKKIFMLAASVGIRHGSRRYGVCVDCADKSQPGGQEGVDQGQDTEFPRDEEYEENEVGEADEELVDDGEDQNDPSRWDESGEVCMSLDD
UniProt O75152: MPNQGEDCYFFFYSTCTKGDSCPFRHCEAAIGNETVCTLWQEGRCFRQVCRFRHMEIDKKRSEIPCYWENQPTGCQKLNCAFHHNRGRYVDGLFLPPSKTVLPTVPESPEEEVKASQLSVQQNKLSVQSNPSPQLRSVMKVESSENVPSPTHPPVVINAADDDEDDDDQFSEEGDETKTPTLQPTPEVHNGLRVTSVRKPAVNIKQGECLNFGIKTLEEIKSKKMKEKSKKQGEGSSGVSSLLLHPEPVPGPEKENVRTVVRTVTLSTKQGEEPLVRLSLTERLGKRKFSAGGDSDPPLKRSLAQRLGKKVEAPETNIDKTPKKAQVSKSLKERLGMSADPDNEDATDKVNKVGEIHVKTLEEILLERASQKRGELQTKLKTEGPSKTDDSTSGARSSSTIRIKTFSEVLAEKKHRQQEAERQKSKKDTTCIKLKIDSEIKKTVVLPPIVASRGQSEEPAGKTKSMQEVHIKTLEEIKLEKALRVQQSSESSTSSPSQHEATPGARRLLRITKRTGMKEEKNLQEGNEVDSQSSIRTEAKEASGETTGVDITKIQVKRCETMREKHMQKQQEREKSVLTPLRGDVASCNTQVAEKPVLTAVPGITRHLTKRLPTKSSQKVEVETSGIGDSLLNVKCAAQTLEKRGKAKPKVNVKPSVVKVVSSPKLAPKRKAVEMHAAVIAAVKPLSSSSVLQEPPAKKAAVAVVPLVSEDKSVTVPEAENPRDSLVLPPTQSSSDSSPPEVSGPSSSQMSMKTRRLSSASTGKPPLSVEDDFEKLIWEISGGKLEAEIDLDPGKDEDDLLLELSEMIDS
UniProt Q5T750: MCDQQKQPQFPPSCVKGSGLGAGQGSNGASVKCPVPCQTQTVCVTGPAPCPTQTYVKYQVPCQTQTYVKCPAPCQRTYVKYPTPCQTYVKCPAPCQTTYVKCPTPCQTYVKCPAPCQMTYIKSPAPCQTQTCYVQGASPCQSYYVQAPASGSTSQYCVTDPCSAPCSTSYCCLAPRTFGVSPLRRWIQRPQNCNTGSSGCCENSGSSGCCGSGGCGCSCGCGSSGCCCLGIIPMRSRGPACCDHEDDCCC
UniProt Q9H8U3: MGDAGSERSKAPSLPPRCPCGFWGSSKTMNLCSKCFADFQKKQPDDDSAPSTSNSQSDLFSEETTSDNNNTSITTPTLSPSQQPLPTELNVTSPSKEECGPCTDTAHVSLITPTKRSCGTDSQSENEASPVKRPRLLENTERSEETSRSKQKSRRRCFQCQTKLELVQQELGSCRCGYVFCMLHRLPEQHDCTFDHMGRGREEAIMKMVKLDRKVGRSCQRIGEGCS
UniProt Q96DA0: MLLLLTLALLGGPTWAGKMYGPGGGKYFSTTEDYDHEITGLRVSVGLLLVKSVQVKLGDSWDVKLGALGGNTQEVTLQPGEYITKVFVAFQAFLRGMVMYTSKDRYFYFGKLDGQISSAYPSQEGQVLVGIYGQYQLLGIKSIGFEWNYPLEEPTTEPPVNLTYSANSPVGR
UniProt Q15776: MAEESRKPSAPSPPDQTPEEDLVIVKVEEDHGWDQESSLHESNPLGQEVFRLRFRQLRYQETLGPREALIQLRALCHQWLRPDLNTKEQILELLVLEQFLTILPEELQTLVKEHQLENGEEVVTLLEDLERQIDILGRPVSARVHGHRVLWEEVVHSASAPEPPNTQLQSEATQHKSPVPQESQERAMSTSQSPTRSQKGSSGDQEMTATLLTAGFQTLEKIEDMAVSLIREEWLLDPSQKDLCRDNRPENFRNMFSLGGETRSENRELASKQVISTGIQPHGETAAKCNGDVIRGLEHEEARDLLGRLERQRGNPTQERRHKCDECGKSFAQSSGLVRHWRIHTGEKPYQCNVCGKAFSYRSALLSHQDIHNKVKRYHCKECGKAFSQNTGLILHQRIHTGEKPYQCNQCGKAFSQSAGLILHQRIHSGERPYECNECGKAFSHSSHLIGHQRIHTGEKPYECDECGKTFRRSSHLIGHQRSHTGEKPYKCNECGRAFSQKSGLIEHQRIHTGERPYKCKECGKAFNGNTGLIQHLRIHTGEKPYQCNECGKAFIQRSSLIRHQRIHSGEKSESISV
UniProt Q8TBF4: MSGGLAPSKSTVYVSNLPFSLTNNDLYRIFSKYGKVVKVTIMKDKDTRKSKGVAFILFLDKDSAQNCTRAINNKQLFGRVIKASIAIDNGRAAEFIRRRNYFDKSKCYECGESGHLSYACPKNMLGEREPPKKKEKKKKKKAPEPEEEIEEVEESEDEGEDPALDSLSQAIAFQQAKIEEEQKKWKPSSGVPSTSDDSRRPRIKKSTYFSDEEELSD
UniProt P23025: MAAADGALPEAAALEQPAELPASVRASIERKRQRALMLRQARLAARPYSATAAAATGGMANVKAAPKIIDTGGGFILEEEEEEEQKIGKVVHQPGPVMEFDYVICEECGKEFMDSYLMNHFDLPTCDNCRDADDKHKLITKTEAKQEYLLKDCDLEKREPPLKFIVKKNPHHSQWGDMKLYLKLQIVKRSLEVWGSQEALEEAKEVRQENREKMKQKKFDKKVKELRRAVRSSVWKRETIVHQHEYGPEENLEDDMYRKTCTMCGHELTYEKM
UniProt O96006: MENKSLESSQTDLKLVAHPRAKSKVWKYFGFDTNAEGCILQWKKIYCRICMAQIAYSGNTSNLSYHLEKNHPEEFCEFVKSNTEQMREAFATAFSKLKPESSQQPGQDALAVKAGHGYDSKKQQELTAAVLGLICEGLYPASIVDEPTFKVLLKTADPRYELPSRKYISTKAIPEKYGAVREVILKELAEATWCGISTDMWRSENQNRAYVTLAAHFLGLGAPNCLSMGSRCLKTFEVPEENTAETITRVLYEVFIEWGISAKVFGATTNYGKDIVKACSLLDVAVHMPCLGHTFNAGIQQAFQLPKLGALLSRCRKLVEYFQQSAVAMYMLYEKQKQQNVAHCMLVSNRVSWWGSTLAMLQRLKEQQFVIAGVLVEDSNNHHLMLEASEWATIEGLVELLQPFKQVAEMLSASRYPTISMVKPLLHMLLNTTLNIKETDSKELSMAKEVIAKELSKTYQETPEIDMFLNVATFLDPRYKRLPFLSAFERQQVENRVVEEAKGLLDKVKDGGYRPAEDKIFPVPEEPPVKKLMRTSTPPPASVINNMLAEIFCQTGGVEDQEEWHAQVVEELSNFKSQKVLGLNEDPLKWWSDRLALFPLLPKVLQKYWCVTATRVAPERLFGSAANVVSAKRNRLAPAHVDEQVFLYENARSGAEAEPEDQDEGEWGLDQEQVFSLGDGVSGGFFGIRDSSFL
UniProt Q8IX07: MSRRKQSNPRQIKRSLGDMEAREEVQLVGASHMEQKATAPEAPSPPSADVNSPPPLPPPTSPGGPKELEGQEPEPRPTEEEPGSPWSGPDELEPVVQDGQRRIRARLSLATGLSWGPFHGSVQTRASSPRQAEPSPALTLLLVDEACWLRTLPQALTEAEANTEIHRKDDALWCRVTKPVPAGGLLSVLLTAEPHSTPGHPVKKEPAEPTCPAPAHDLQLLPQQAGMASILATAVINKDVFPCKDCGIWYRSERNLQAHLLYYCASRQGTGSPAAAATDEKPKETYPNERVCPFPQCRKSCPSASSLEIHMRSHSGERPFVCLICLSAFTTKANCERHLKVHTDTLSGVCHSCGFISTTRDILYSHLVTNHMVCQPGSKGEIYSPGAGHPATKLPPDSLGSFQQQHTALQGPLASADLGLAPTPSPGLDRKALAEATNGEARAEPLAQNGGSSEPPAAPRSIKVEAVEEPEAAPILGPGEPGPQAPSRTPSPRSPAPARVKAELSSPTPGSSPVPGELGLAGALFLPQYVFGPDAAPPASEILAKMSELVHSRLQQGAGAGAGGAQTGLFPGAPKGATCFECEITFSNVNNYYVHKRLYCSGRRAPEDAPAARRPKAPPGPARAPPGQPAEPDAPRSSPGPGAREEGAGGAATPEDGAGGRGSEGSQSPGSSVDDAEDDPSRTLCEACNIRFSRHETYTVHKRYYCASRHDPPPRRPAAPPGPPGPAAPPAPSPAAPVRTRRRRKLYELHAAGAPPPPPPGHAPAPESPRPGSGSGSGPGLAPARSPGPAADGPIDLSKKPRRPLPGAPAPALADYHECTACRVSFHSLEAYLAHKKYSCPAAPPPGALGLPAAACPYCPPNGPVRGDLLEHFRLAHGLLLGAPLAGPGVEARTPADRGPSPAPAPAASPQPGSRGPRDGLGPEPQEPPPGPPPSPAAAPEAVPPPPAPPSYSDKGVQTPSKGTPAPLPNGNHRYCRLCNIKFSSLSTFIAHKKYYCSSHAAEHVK
UniProt Q9H6R6: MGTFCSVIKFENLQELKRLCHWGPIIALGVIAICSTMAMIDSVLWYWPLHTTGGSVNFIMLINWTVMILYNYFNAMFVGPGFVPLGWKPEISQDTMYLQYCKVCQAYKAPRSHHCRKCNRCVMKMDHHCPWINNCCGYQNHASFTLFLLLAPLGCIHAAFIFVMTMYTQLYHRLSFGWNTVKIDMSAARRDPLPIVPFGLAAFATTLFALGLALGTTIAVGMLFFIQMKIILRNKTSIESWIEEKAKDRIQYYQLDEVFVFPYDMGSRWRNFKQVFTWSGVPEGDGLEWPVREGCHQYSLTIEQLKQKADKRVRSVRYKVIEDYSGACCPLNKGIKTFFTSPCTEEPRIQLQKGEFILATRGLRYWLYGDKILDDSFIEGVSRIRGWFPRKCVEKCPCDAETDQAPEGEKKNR

This is one part of the list.

Compound in the first test: COc1cccc2cc(-c3nc([C@H]4CC[C@H](C(=O)O)CC4)n4ncnc(N)c34)[nH]c12
Nature of the test: log2 fold change, soluble protein after heating vs DMSO (PISA); higher = thermal stabilisation; K562 cells, 10 uM, 30 min; active = over 0.2 and 3.5 SD of the protein, either way, in both replicates (recomputed). Summed up:
(§1)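 K562 cells at 2×10^6 cells/mL were treated with 10 μM compound for 30 min. Aliquots were heated for 3 min across 48°C-58°C, pooled, and extracted in PBS with 0.5% NP-40 at 4°C; soluble protein was the supernatant after 21,000xg for 90 min. Soluble protein was quantified by TMTpro 16plex LC-MS/MS with channel sums equalised, and reported as log2 fold change in thermal stability against DMSO controls, with values from duplicates.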
On to XRCC2 (UniProt O43543), for which the log2 fold change was inactive: -0.019.

As to ZFP36L2 (UniProt P47974), the log2 fold change was inactive: 0.169.

On to XIRP2 isoform 8 (UniProt A4UGR9), for which the log2 fold change was inactive: 0.034.

On to YIPF1 (UniProt Q9Y548), for which the log2 fold change is inactive: -0.009.

For ZBTB14 (UniProt O43829), the log2 fold change is inactive: -0.122.

With ZNF207 isoform 2 (UniProt O43670), the log2 fold change is inactive: 0.18.

For ZBTB10 (UniProt Q96DT7), the log2 fold change was inactive: 0.051.

Regarding ZC3H11A (UniProt O75152), the log2 fold change was inactive: -0.131.

For the target ZBTB17 isoform 2 (UniProt Q13105), the log2 fold change was inactive: -0.006.

In the case of XP32 (UniProt Q5T750), the log2 fold change was inactive: -0.004.

For the target ZFAND3 (UniProt Q9H8U3), the log2 fold change is inactive: 0.025.

Take ZFPM2 (UniProt Q8WW38): the log2 fold change was inactive: 0.159.

With ZG16B (UniProt Q96DA0), the log2 fold change was inactive: 0.226.

On to ZFC3H1 (UniProt O60293), for which the log2 fold change was inactive: 0.194.

Compound in the next test: CS(=O)(=O)CCNCc1ccc(-c2ccc3ncnc(Nc4ccc(OCc5cccc(F)c5)c(Cl)c4)c3c2)o1 [lapatinib]
The description is as above. Summed up: as §1
Consider XRCC2 (UniProt O43543), for which the log2 fold change is inactive: -0.063.

With ZBTB24 (UniProt O43167), the log2 fold change was inactive: 0.096.

Turning to XIRP2 isoform 8 (UniProt A4UGR9), the log2 fold change was inactive: -0.058.

Turning to ZNF106 (UniProt Q9H2Y7), the log2 fold change is inactive: -0.383.

As for ZKSCAN8 (UniProt Q15776), the log2 fold change is inactive: 0.123.

Consider YIPF1 (UniProt Q9Y548), for which the log2 fold change was inactive: -0.015.

As for ZCRB1 (UniProt Q8TBF4), the log2 fold change is inactive: 0.019.

With ZNF207 isoform 2 (UniProt O43670), the log2 fold change was inactive: -0.276.

On to XPA (UniProt P23025), for which the log2 fold change is inactive: -0.065.

For ZBED1 (UniProt O96006), the log2 fold change was inactive: 0.031.

On to ZFPM1 (UniProt Q8IX07), for which the log2 fold change is inactive: -0.144.

As for ZBTB10 (UniProt Q96DT7), the log2 fold change is inactive: 0.049.

Take ZC3H11A (UniProt O75152): the log2 fold change is inactive: 0.075.

Take ZFAND3 (UniProt Q9H8U3): the log2 fold change is inactive: 0.039.

Turning to ZG16B (UniProt Q96DA0), the log2 fold change is inactive: 1.14.

For the target ZDHHC6 (UniProt Q9H6R6), the log2 fold change is inactive: -0.031.

Compound in the next test: CS(=O)(=O)N1CCN(Cc2cc3nc(-c4cccc5[nH]ncc45)nc(N4CCOCC4)c3s2)CC1 [pictilisib]
The description is as above. Summed up:
as §1
In the case of ZDHHC9 (UniProt Q9Y397), the log2 fold change is inactive: -0.206.

As to ZBTB24 (UniProt O43167), the log2 fold change was inactive: 0.054.

On to XIRP2 isoform 8 (UniProt A4UGR9), for which the log2 fold change is inactive: 0.07.

Regarding ZFYVE21 isoform 2 (UniProt Q9BQ24), the log2 fold change was inactive: -0.155.

As for ZKSCAN8 (UniProt Q15776), the log2 fold change was inactive: -0.143.

Regarding ZCRB1 (UniProt Q8TBF4), the log2 fold change is inactive: -0.008.

On to ZNF207 isoform 2 (UniProt O43670), for which the log2 fold change is inactive: -0.208.

Turning to XPA (UniProt P23025), the log2 fold change was inactive: 0.151.

Regarding YBEY (UniProt P58557), the log2 fold change is inactive: 0.308.

As for ZBTB10 (UniProt Q96DT7), the log2 fold change is inactive: -0.161.

ZC3H11A (UniProt O75152): the log2 fold change was inactive: 0.045.

Regarding XP32 (UniProt Q5T750), the log2 fold change was inactive: 0.663.

For the target ZFAND3 (UniProt Q9H8U3), the log2 fold change is inactive: -0.13.

Consider ZDHHC6 (UniProt Q9H6R6), for which the log2 fold change was inactive: -0.044.

Compound in the next test: CS(=O)(=O)c1ccc(-c2cnc(N)c(C(=O)Nc3ccccc3)n2)cc1
Described as above. Summed up: as §1
For ZBTB24 (UniProt O43167), the log2 fold change is inactive: -0.227.

For XIRP2 isoform 8 (UniProt A4UGR9), the log2 fold change was inactive: 0.123.

For ZNF106 (UniProt Q9H2Y7), the log2 fold change is inactive: 0.053.

Consider ZDHHC16 (UniProt Q969W1), for which the log2 fold change was inactive: 0.087.

As to ZKSCAN8 (UniProt Q15776), the log2 fold change was inactive: -0.004.

Regarding YIPF1 (UniProt Q9Y548), the log2 fold change was inactive: 0.064.

As for ZCRB1 (UniProt Q8TBF4), the log2 fold change was inactive: 0.232.

Take ZNF207 isoform 2 (UniProt O43670): the log2 fold change is inactive: 0.02.

With ZBTB7B isoform 2 (UniProt O15156), the log2 fold change was inactive: 0.096.

On to ZBED1 (UniProt O96006), for which the log2 fold change is inactive: 0.223.

Consider ZDHHC13 (UniProt Q8IUH4), for which the log2 fold change was inactive: 0.113.

In the case of ZFPM1 (UniProt Q8IX07), the log2 fold change was inactive: 0.05.

As to ZBTB10 (UniProt Q96DT7), the log2 fold change is inactive: -0.108.

For ZBTB17 isoform 2 (UniProt Q13105), the log2 fold change is inactive: -0.013.

Take ZFAND3 (UniProt Q9H8U3): the log2 fold change is inactive: -0.054.

With ZCCHC17 (UniProt Q9NP64), the log2 fold change is inactive: -0.069.

Regarding ZG16B (UniProt Q96DA0), the log2 fold change was inactive: 0.007.

ZFC3H1 (UniProt O60293): the log2 fold change was inactive: 0.131.

Compound in another test: C[C@@H]1COCCN1C2=NC(=NC(=C2)C3(CC3)S(=O)(=O)C)C4=C5C=CNC5=CC=C4
The test is described as above. Summed up: as §1
For the target XRCC2 (UniProt O43543), the log2 fold change is inactive: 0.135.

Regarding ZBTB24 (UniProt O43167), the log2 fold change was inactive: -0.399.

As for ZKSCAN8 (UniProt Q15776), the log2 fold change is inactive: -0.042.

In the case of ZNF207 isoform 2 (UniProt O43670), the log2 fold change is inactive: -0.02.

As to XPA (UniProt P23025), the log2 fold change was inactive: 0.08.

Take YTHDF1 (UniProt Q9BYJ9): the log2 fold change is inactive: -0.43.

On to ZBED1 (UniProt O96006), for which the log2 fold change was inactive: -0.032.

Consider ZDHHC13 (UniProt Q8IUH4), for which the log2 fold change is inactive: -0.105.

For the target ZFPM1 (UniProt Q8IX07), the log2 fold change is inactive: 0.222.

For ZBTB10 (UniProt Q96DT7), the log2 fold change is inactive: -0.087.

Turning to XYLB (UniProt O75191), the log2 fold change was inactive: 0.097.

Consider ZFAND3 (UniProt Q9H8U3), for which the log2 fold change was inactive: -0.084.

On to ZDHHC6 (UniProt Q9H6R6), for which the log2 fold change is inactive: 0.067.

As for YIPF2 (UniProt Q9BWQ6), the log2 fold change is inactive: -0.007.
